In patent US20220000975A1 one finds binding data, which are given here for two molecules.

Amino acid sequences for entries named in this document (tags omitted). Residues count along the entry.
UniProt P05067, residues 672-713: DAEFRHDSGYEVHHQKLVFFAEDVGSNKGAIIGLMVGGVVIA

Assay [1] has as its target amyloid Aβ plaque in the brain of 5×FAD mice (UniProt P05067). The experiment in a line: co-immunostaining of brain sections 3 hr after microinjection of rAIM, fluorescence microscopy.
The target is the same in assay [2]. The experiment in a line: co-immunostaining of brain sections of TG(+) 5×FAD mice, fluorescence microscopy.

Results are given in words; binding and its absence hold for the method and conditions named. Some results given as binding are weak or reduced against the parent protein; the word gives no strength.

B1: Recombinant mouse AIM (rAIM) (protein)
chain: ESPTKVQLVGGAHRCEGRVEVEHNGQWGTVCDDGWDRRDVAVVCRELNCGAVIQTPRGASYQPPASEQRVLIQGVDCNGTEDTLAQCELNYDVFDCSHEEDAGAQCENPDSDLLFIPEDVRLVDGPGHCQGRVEVLHQSQWSTVCKAGWNLQVSKVVCRQLGCGRALLTYGSCNKNTQGKGPIWMGKMSCSGQEANLRSCLLSRLENNCTHGEDTWMECEDPFELKLVGGDTPCSGRLEVLHKGSWGSVCDDNWGEKEDQVVCKQLGCGKSLHPSPKTRKIYGPGAGRIWLDDVNCSGKEQSLEFCRHRLWGYHDCTHKEDVEVICTDFDV
Take B1: in assay [1], the binding entry is “binds”.

B2: mouse AIM expressed in brain nerve cells under human PDGF-B promoter (transgene, TG(+) 5×FAD mouse) (protein, UniProt Q9QWK4 22-352, looked up)
chain: ESPTKVQLVGGAHRCEGRVEVEHNGQWGTVCDDGWDRRDVAVVCRELNCGAVIQTPRGASYQPPASEQRVLIQGVDCNGTEDTLAQCELNYDVFDCSHEEDAGAQCENPDSDLLFIPEDVRLVDGPGHCQGRVEVLHQSQWSTVCKAGWNLQVSKVVCRQLGCGRALLTYGSCNKNTQGKGPIWMGKMSCSGQEANLRSCLLSRLENNCTHGEDTWMECEDPFELKLVGGDTPCSGRLEVLHKGSWGSVCDDNWGEKEDQVVCKQLGCGKSLHPSPKTRKIYGPGAGRIWLDDVNCSGKEQSLEFCRHRLWGYHDCTHKEDVEVICTDFDV
Take B2: the binding entry in assay [2] is “binds”.
